Measurements reported in patent US20130202681A1 (priority 2012, published 2013).
Some results were stated once for a whole list of compounds, not compound by compound.

Test system: Mycobacterium tuberculosis
Conditions: infected cell culture

CC(=O)N[C@@H](CS)C(=O)O [NAC, N-acetyl cysteine]
growth of M. tuberculosis limited to a level: below 1000 CFU/ml
